# Assay results taken from the supplement of paper PMC10689618.
# Where “and” joins values, the source holds several entries; their conditions need not be identical. Equal values may be shown once. This is one part of the list. Many values rest on one well or one pass, so single values are uncertain.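 Labelled rat cortical synaptosomes were engulfed by primary human fetal astrocytes. Engulfment equaled a red/green ratio, corrected for calcein live-cell signal and normalized to the plate median. Compounds were toxic when calcein dropped over 30%, and reduced phagocytosis when below 70% of the median above 5 µM.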
# Test system: Human fetal astrocytes
# Test: synaptosome phagocytosis (pHrodo/calcein intensity ratio) relative to plate median of data wells; higher = more phagocytosis
# Conditions: 11.11 µM; 24 h
row,Compound,synaptosome phagocytosis
1,C[C@@H]1C[C@H]2[C@@H]3C[C@H](F)C4=CC(=O)C=C[C@]4(C)[C@@]3(F)[C@@H](O)C[C@]2(C)[C@@]1(O)C(=O)CO,123%
2,Nc1[nH]cnc2ncnc1-2,108%
3,COc1ccc2c(c1)OC[C@@H](Cc1ccc(OC)c(OC)c1)[C@H]2O,114%
4,C[C@H]1[C@H](NC(=O)/C(=N\OC(C)(C)C(=O)O)c2csc(N)n2)C(=O)N1S(=O)(=O)O,121% and 106%
5,O=C1N=C(O)NC1(c1ccccc1)c1ccccc1,89.5%
6,CC[C@H](C)C(=O)O[C@H]1C[C@H](O)C=C2C=C[C@H](C)[C@H](CC[C@@H](O)C[C@@H](O)CC(=O)O)[C@H]21,139%
7,CO/N=C(\C(=O)N[C@@H]1C(=O)N2C(C(=O)O)=C(COC(C)=O)CS[C@H]12)c1csc(N)n1,110%
8,CC1(C)[C@@H](O)CC[C@]2(C)[C@H]3C(=O)C=C4[C@@H]5C[C@@](C)(C(=O)O)CC[C@]5(C)CC[C@@]4(C)[C@]3(C)CC[C@@H]12,123%
9,Nc1c2ccccc2nc2ccccc12,71.7%
10,O=C(CCBr)N1CCN(C(=O)CCBr)CC1,141%
11,CCC(CCC(C)C1CCC2C3CCC4CC(O)CCC4(C)C3CCC12C)C(C)C (configuration not stated),130%
12,OCC(S)CS (configuration not stated),252%
13,O=C(O)CCCC[C@@H]1SC[C@@H]2NC(=O)N[C@@H]21,99%
14,CC(=O)c1cc2ccccc2oc1=O,120%
15,CCCCCC(=O)O[C@]1(C(C)=O)CC[C@H]2[C@@H]3CCC4=CC(=O)CC[C@]4(C)[C@H]3CC[C@@]21C,86.4%
16,CNCc1ccccc1,130%
17,C[C@H](CCC(=O)O)[C@H]1CC[C@H]2[C@@H]3[C@@H](O)C[C@@H]4C[C@H](O)CC[C@]4(C)[C@H]3CC[C@]12C,120%
18,CCCCCCCCCCCCC[N+](C)(C)Cc1ccccc1,58.4%

row,Compound,synaptosome phagocytosis
1,CCOC(=O)[C@H](CCc1ccccc1)N[C@@H](C)C(=O)N1Cc2ccccc2C[C@H]1C(=O)O,95.1%
2,CN1CCC(=C2c3ccccc3Sc3ccccc32)CC1,130%
3,CCOC(=O)CCC(=O)O[C@H]1[C@H](O[C@@H]2[C@@H](C)[C@H](O[C@H]3C[C@@](C)(OC)[C@@H](O)[C@H](C)O3)[C@@H](C)C(=O)O[C@H](CC)[C@@](C)(O)[C@H](O)[C@@H](C)C(=O)[C@H](C)C[C@@]2(C)O)O[C@H](C)C[C@@H]1N(C)C,106%
4,Cc1cc(=O)n(-c2ccccc2)n1C,131%
5,NNC(=O)c1ccncc1.Nc1ccc(C(=O)O)c(O)c1,99.2%
6,NC(=O)c1ccccc1O,91.9%
7,O=C(N/N=C/c1ccc([N+](=O)[O-])o1)c1ccc(O)cc1,86.4%
8,Clc1ccccc1C(c1ccccc1)(c1ccccc1)n1ccnc1 [Clotrimazole],70.1%
9,O=C1CN2Cc3c(ccc(Cl)c3Cl)N=C2N1,136%
10,CC(C)CCCCC(=O)N[C@@H](CCN)C(=O)N[C@@H](CN[C@@H](CCN)C(=O)N[C@H]1CCNC(=O)[C@H]([C@@H](C)O)NC(=O)[C@H](CCN)NC(=O)[C@H](CCN)NC(=O)[C@H](CC(C)C)NC(=O)[C@@H](CC(C)C)NC(=O)[C@H](CCN)NC1=O)[C@@H](C)O.CCC(C)CCCCC(=O)N[C@@H](CCN)C(=O)N[C@@H](CN[C@@H](CCN)C(=O)N[C@H]1CCNC(=O)[C@H]([C@@H](C)O)NC(=O)[C@H](CCN)NC(=O)[C@H](CCN)NC(=O)[C@H](CC(C)C)NC(=O)[C@@H](CC(C)C)NC(=O)[C@H](CCN)NC1=O)[C@@H](C)O (some centres not stated),96%
11,CC(=O)O[C@H]1CC[C@]2(C)[C@H]3CC[C@@]4(C)[C@H](c5ccoc5)OC(=O)[C@H]5O[C@]54[C@]3(C)[C@H](OC(C)=O)C[C@H]2C1(C)C [3beta-ACETOXYDEOXODIHYDROGEDUNIN],83.5%
12,C#C[C@]1(OC(C)=O)CC[C@H]2[C@@H]3CCC4=CC(=O)CC[C@@H]4[C@H]3CC[C@@]21C,88.2%
13,Cc1c(Nc2ncccc2C(=O)O)cccc1C(F)(F)F,78%
14,CNCCc1ccccn1,104%
15,COc1cc(C(=O)NCCCCCC(=O)O)cc(OC)c1OC,123%
16,C[C@H]1O[C@@H](O[C@H]2[C@@H](O)C[C@H](O[C@H]3[C@@H](O)C[C@H](O[C@H]4CC[C@@]5(C)[C@H](CC[C@@H]6[C@@H]5CC[C@]5(C)[C@@H](C7=CC(=O)OC7)CC[C@]65O)C4)O[C@@H]3C)O[C@@H]2C)C[C@H](O)[C@@H]1O,26%
17,C=C1C[C@]23C[C@@]1(O)CC[C@H]2[C@@]12C=C[C@H](O)[C@@](C)(C(=O)O1)[C@H]2[C@@H]3C(=O)O,128%
18,COc1cc(-c2cc(=O)c3c(O)c(OC)c(OC)c(OC)c3o2)cc(OC)c1OC,51.6%

# Same assay, conditions: 22.22 µM; 24 h
row,Compound,synaptosome phagocytosis
1,C[C@@H]1C[C@H]2[C@@H]3C[C@H](F)C4=CC(=O)C=C[C@]4(C)[C@@]3(F)[C@@H](O)C[C@]2(C)[C@@]1(O)C(=O)CO,115%
2,Nc1[nH]cnc2ncnc1-2,101%
3,COc1ccc2c(c1)OC[C@@H](Cc1ccc(OC)c(OC)c1)[C@H]2O,144%
4,O=C1N=C(O)NC1(c1ccccc1)c1ccccc1,116%
5,CC[C@H](C)C(=O)O[C@H]1C[C@H](O)C=C2C=C[C@H](C)[C@H](CC[C@@H](O)C[C@@H](O)CC(=O)O)[C@H]21,97%
6,CO/N=C(\C(=O)N[C@@H]1C(=O)N2C(C(=O)O)=C(COC(C)=O)CS[C@H]12)c1csc(N)n1,110%
7,CC1(C)[C@@H](O)CC[C@]2(C)[C@H]3C(=O)C=C4[C@@H]5C[C@@](C)(C(=O)O)CC[C@]5(C)CC[C@@]4(C)[C@]3(C)CC[C@@H]12,72.9%
8,Nc1c2ccccc2nc2ccccc12,63.2%
9,O=C(CCBr)N1CCN(C(=O)CCBr)CC1,131%
10,CCC(CCC(C)C1CCC2C3CCC4CC(O)CCC4(C)C3CCC12C)C(C)C (configuration not stated),139%
11,OCC(S)CS (configuration not stated),217%
12,O=C(O)CCCC[C@@H]1SC[C@@H]2NC(=O)N[C@@H]21,118%
13,CC(=O)c1cc2ccccc2oc1=O,138%
14,CCCCCC(=O)O[C@]1(C(C)=O)CC[C@H]2[C@@H]3CCC4=CC(=O)CC[C@]4(C)[C@H]3CC[C@@]21C,77.6%
15,CNCc1ccccc1,121%
16,C[C@H](CCC(=O)O)[C@H]1CC[C@H]2[C@@H]3[C@@H](O)C[C@@H]4C[C@H](O)CC[C@]4(C)[C@H]3CC[C@]12C,112%
17,CCCCCCCCCCCCC[N+](C)(C)Cc1ccccc1,20.5%
18,CCOC(=O)[C@H](CCc1ccccc1)N[C@@H](C)C(=O)N1Cc2ccccc2C[C@H]1C(=O)O,89.8%

row,Compound,synaptosome phagocytosis
1,CN1CCC(=C2c3ccccc3Sc3ccccc32)CC1,144%
2,COc1cc2c(cc1OC)-c1cc3ccc(OC)c(OC)c3c[n+]1CC2,65.3% and 66.5%
3,CCOC(=O)CCC(=O)O[C@H]1[C@H](O[C@@H]2[C@@H](C)[C@H](O[C@H]3C[C@@](C)(OC)[C@@H](O)[C@H](C)O3)[C@@H](C)C(=O)O[C@H](CC)[C@@](C)(O)[C@H](O)[C@@H](C)C(=O)[C@H](C)C[C@@]2(C)O)O[C@H](C)C[C@@H]1N(C)C,92.7%
4,Cc1cc(=O)n(-c2ccccc2)n1C,92%
5,NNC(=O)c1ccncc1.Nc1ccc(C(=O)O)c(O)c1,84%
6,NC(=O)c1ccccc1O,94.5%
7,O=C(N/N=C/c1ccc([N+](=O)[O-])o1)c1ccc(O)cc1,102%
8,Clc1ccccc1C(c1ccccc1)(c1ccccc1)n1ccnc1 [Clotrimazole],70%
9,O=C1CN2Cc3c(ccc(Cl)c3Cl)N=C2N1,103%
10,CC(C)CCCCC(=O)N[C@@H](CCN)C(=O)N[C@@H](CN[C@@H](CCN)C(=O)N[C@H]1CCNC(=O)[C@H]([C@@H](C)O)NC(=O)[C@H](CCN)NC(=O)[C@H](CCN)NC(=O)[C@H](CC(C)C)NC(=O)[C@@H](CC(C)C)NC(=O)[C@H](CCN)NC1=O)[C@@H](C)O.CCC(C)CCCCC(=O)N[C@@H](CCN)C(=O)N[C@@H](CN[C@@H](CCN)C(=O)N[C@H]1CCNC(=O)[C@H]([C@@H](C)O)NC(=O)[C@H](CCN)NC(=O)[C@H](CCN)NC(=O)[C@H](CC(C)C)NC(=O)[C@@H](CC(C)C)NC(=O)[C@H](CCN)NC1=O)[C@@H](C)O (some centres not stated),83.2%
11,CC(=O)O[C@H]1CC[C@]2(C)[C@H]3CC[C@@]4(C)[C@H](c5ccoc5)OC(=O)[C@H]5O[C@]54[C@]3(C)[C@H](OC(C)=O)C[C@H]2C1(C)C [3beta-ACETOXYDEOXODIHYDROGEDUNIN],128%
12,C#C[C@]1(OC(C)=O)CC[C@H]2[C@@H]3CCC4=CC(=O)CC[C@@H]4[C@H]3CC[C@@]21C,97%
13,Cc1c(Nc2ncccc2C(=O)O)cccc1C(F)(F)F,103%
14,CNCCc1ccccn1,114%
15,COc1cc(C(=O)NCCCCCC(=O)O)cc(OC)c1OC,111%
16,C[C@H]1O[C@@H](O[C@H]2[C@@H](O)C[C@H](O[C@H]3[C@@H](O)C[C@H](O[C@H]4CC[C@@]5(C)[C@H](CC[C@@H]6[C@@H]5CC[C@]5(C)[C@@H](C7=CC(=O)OC7)CC[C@]65O)C4)O[C@@H]3C)O[C@@H]2C)C[C@H](O)[C@@H]1O,38.3%
17,C=C1C[C@]23C[C@@]1(O)CC[C@H]2[C@@]12C=C[C@H](O)[C@@](C)(C(=O)O1)[C@H]2[C@@H]3C(=O)O,103%
18,COc1cc(-c2cc(=O)c3c(O)c(OC)c(OC)c(OC)c3o2)cc(OC)c1OC,124%
